Source: the supplement of paper PMC8728848
This is one part of the list.

Key:
Test in all cases: glycan array binding signal (z-score within array); higher = stronger binding
Conditions in all cases: glycan notation: IUPAC condensed, linker removed
[1] = biological target: Neu5Ac(a2-6)Gal(b1-4)GlcNAc(b1-3)GalNAc
In short: (§1)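 Arrays were curated from the Consortium for Functional Glycomics database, 3228 in total, and kept only where the protein sequence was available. Binding is expressed as a within-array Z-score. This score was averaged across arrays of the same protein sequence at different concentrations or buffers and across linkers, and negative values can be read as non-binding.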

[2] = biological target: Neu5Ac(a2-6)Gal(b1-4)GlcNAc6S
In short: as §1

[3] = biological target: Neu5Ac(a2-6)GalNAc
In short: as §1

[4] = biological target: Neu5Ac(a2-6)GalNAc(b1-4)GlcNAc
In short: as §1

[5] = biological target: Neu5Ac(a2-6)GlcNAc(b1-4)GlcNAc
In short: as §1

[6] = biological target: Neu5Ac(a2-6)GlcNAc(b1-4)GlcNAc(b1-4)GlcNAc
In short: as §1

[7] = biological target: Neu5Ac(a2-8)Neu5Ac
In short: as §1

[8] = biological target: Neu5Ac(a2-8)Neu5Ac(a2-3)Gal(b1-4)Glc
In short: as §1

[9] = biological target: Neu5Ac(a2-8)Neu5Ac(a2-3)[Gal(b1-3)GalNAc(b1-4)]Gal(b1-4)Glc
In short: as §1

[10] = biological target: Neu5Ac(a2-8)Neu5Ac(a2-3)[GalNAc(b1-4)]Gal(b1-4)Glc
In short: as §1

[11] = biological target: Neu5Ac(a2-8)Neu5Ac(a2-8)Neu5Ac
In short: as §1

[12] = biological target: Neu5Ac(a2-8)Neu5Ac(a2-8)Neu5Ac(a2-3)Gal(b1-4)Glc
In short: as §1

[13] = biological target: Neu5Ac(a2-8)Neu5Ac(a2-8)Neu5Ac(a2-3)[GalNAc(b1-4)]Gal(b1-4)Glc
In short: as §1

[14] = biological target: Neu5Ac(a2-8)Neu5Ac(a2-8)Neu5Ac(a2-8)Neu5Ac(a2-3)[GalNAc(b1-4)]Gal(b1-4)Glc
In short: as §1

[15] = biological target: Neu5Ac(b2-6)Gal(b1-4)GlcNAc
In short: as §1

[16] = biological target: Neu5Ac(b2-6)GalNAc
In short: as §1

[17] = biological target: Neu5Ac9Ac(a2-3)Gal(b1-3)GlcNAc
In short: as §1

[18] = biological target: Neu5Ac9Ac(a2-3)Gal(b1-4)GlcNAc
In short: as §1

[19] = biological target: Neu5Ac9Ac(a2-6)Gal(b1-4)GlcNAc
In short: as §1

[20] = biological target: Neu5Gc(a2-3)Gal(b1-3)GlcNAc
In short: as §1

[21] = biological target: Neu5Gc(a2-3)Gal(b1-3)[Fuc(a1-4)]GlcNAc
In short: as §1

[22] = biological target: Neu5Gc(a2-3)Gal(b1-4)Glc
In short: as §1

[23] = biological target: Neu5Gc(a2-3)Gal(b1-4)GlcNAc
In short: as §1

[24] = biological target: Neu5Gc(a2-3)Gal(b1-4)[Fuc(a1-3)]GlcNAc
In short: as §1

[25] = biological target: Neu5Gc(a2-6)Gal(b1-4)GlcNAc
In short: as §1

[26] = biological target: Neu5Gc(a2-6)GalNAc
In short: as §1

[27] = biological target: Neu5Gc(b2-6)Gal(b1-4)GlcNAc
In short: as §1

B1: rPitB (Streptococcus pneumoniae), A0A0I7U739 (protein)
chain: MSEIEIINAKKIYHDVPVIENLNITIPKGSLFTLLGASGCGKTTLLRMIAGFNSIKDGEFYFDDTKINNMEPSKRNIGLVFQNYAIFPHLTVRDNVAFGLMQKKVPKEELIQQTNKYLELMQIAQYAD
glycan array binding signal (z-score) [1]: -0.841 | glycan array binding signal (z-score) [2]: 0.47 | glycan array binding signal (z-score) [3]: -0.725 | glycan array binding signal (z-score) [4]: -0.87 | glycan array binding signal (z-score) [5]: 0.144 | glycan array binding signal (z-score) [6]: 0.495 | glycan array binding signal (z-score) [7]: -0.145 | glycan array binding signal (z-score) [8]: -0.248 | glycan array binding signal (z-score) [9]: -0.053 | glycan array binding signal (z-score) [10]: -0.462 | glycan array binding signal (z-score) [11]: -0.484 | glycan array binding signal (z-score) [12]: 0.611 | glycan array binding signal (z-score) [13]: -0.201 | glycan array binding signal (z-score) [14]: -0.44 | glycan array binding signal (z-score) [15]: 0.31 | glycan array binding signal (z-score) [16]: -0.028 | glycan array binding signal (z-score) [17]: 0.367 | glycan array binding signal (z-score) [18]: -0.889 | glycan array binding signal (z-score) [19]: -0.315 | glycan array binding signal (z-score) [20]: -0.303 | glycan array binding signal (z-score) [21]: 0.021 | glycan array binding signal (z-score) [22]: -0.415 | glycan array binding signal (z-score) [23]: 0.172 | glycan array binding signal (z-score) [24]: -0.415 | glycan array binding signal (z-score) [25]: -0.644 | glycan array binding signal (z-score) [26]: -0.249 | glycan array binding signal (z-score) [27]: -0.518
